The list shows a part of the results. The main result of the screen is listed elsewhere. These columns were measured beside it and carry no call. Most of these compounds were active or inconclusive in the main read-out, so they are no random draw. Words in brackets tell the shape of the fitted curve; partial curves, single points and poor fits give uncertain potencies.
Test: qHTS Assay for Lipid Storage Modulators in Drosophila S3 Cells;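 on cell number change: cells counted by Cell Tracker Red CMTPX staining in the red channel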
Details: BODIPY lipid droplet fluorescence, 18-24 h; for cell number change: measured here: cell count max response, cells fed with added oleic acid
Outline: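 Laser-scanning cytometry quantifies lipid droplet accumulation (500–530 nm total intensity; droplet/cell object ratio) in oleic acid-fed (400 uM added) Drosophila S3 cells treated with a concentration series. 20 uM Triacsin C defined 100% inhibition.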

[1] = measured here: lipid fluorescence (Fed channel) AC50, cells fed with added oleic acid
[2] = measured here: cell number channel AC50, cells fed with added oleic acid

| Structure (SMILES) | cell number change [%] | AC50 [1] | AC50 [2] |
| --- | --- | --- | --- |
| Cc1ccc2nc(-c3ccccn3)cc(C(=O)Nc3ccc4c(c3)OCO4)c2c1 | 76 |  |  |
| COc1ccc(/C=C2\SC(=O)N(CC(=O)NC3CCS(=O)(=O)C3)C2=O)cc1 (stereo unspecified) | 26.7 | 5.8 µM [rising, single point] |  |
| CCc1ccccc1NC(=O)CN1CCN(CC(=O)Nc2cc(C)ccc2OC)CC1 |  | 0.231 µM [rising, full curve, poor fit] |  |
| CC#CC[N+](C)(C)CCCCCCCCCCCC | -75.7 |  | 16.4 µM [falling, single point] |
| Cc1ccccc1NS(=O)(=O)c1ccc(NC(=O)c2nc3ncccn3n2)cc1 |  | 4.11 µM [rising, partial curve, poor fit] |  |
| COc1ccccc1CNC(=O)[C@@H]1CCCN1S(=O)(=O)c1ccccc1F | 5.46 |  |  |
| COc1ccc(C(=O)N2CC3(CC(c4cccc(NC(=O)CC(c5ccccc5)c5ccccc5)c4)=NO3)C[C@H]2C(N)=O)cc1 (stereo partly specified) | 11.1 | 0.651 µM [rising, partial curve, poor fit] |  |
| CC1CN(C(=S)NC(=O)c2cccc([N+](=O)[O-])c2)CC(C)O1 (stereo unspecified) | -13.2 | 0.461 µM [falling, full curve, poor fit] |  |
| CCC(C)[C@H](NC(=O)N1CCCCCC1)C(=O)O (stereo partly specified) | 12.4 |  |  |
| CCOC(=O)CSc1nc2c(sc(=S)n2-c2ccccc2)c(=O)n1-c1ccc(OC)cc1OC | 38 | 29.1 µM [rising, single point] | 25.9 µM [rising, single point] |
| CCOC(=O)c1c(NC(=O)CSc2nnc(-c3ccco3)o2)sc(C(C)=O)c1C | 14.3 | 0.517 µM [rising, full curve] | 0.517 µM [rising, full curve] |
| Cc1cc2ncc(-c3ccc(Cl)cc3)cn2n1 | 5.48 |  |  |
| CC(=O)Oc1cc2oc(=O)cc(C)c2cc1Cl | -4.59 | 0.058 µM [falling, full curve, poor fit] | 0.0164 µM [falling, full curve, poor fit] |
| COC(=O)c1cccc(-n2[nH]nnc2=S)c1 | -27.2 |  |  |
| CCN1C(=O)c2cccc3c(NC(=O)c4ccc(S(=O)(=O)N(C)C)cc4)ccc1c23 |  | 1.3 µM [rising, partial curve] |  |
| Cc1nnc(SCC(=O)Nc2ccc([N+](=O)[O-])cc2)n1C | 1.35 |  |  |
| COc1ccc(Cl)c2sc(N(Cc3cccnc3)C(C)=O)nc12 | -8.55 | 29.1 µM [rising, single point] | 7.31 µM [falling, single point] |
| Cc1ccc2[nH]c3c(N4CCN(Cc5ccccc5)CC4)ncnc3c2c1 | -40.1 | 29.1 µM [falling, single point] | 14.6 µM [falling, partial curve, poor fit] |
| Cc1ccc(NS(=O)(=O)c2ccc3c(c2)c(=O)n(C)c(=O)n3C)cc1F | -21.6 | 5.17 µM [falling, full curve, poor fit] |  |
| O=C1CC(c2ccccc2)c2ccccc21 (stereo unspecified) | -38.9 | 29.1 µM [falling, single point] |  |

| Structure (SMILES) | cell number change [%] | AC50 [1] | AC50 [2] |
| --- | --- | --- | --- |
| COc1cc2cc(C(C)(C)O)oc(=O)c2cc1OC | -3.1 | 16.4 µM [rising, single point] |  |
| Cc1ccc(NC(=O)CO/N=C/c2ccccc2C)c(C)c1 |  | 5.8 µM [rising, full curve] | 6.51 µM [rising, single point] |
| CCOC(=O)c1c(C)[nH]c(C)c1C(=O)COC(=O)/C=C/c1ccc(OC)cc1 | 25 |  | 0.517 µM [rising, full curve, poor fit] |
| Cc1cccn2c(=O)nc(SCC(=O)N3CCOCC3)nc12 | 13.1 | 3.26 µM [rising, full curve, poor fit] |  |
| CC(C)(C)C(=O)Nc1ccc(C(=O)Nc2cccnc2)cc1 | -5.68 |  |  |
| CCC(C(=O)Nc1cccnc1)c1ccccc1 (stereo unspecified) | -26 |  |  |
| CCN(CC)S(=O)(=O)N1CCN(S(=O)(=O)N2CCOCC2)CC1 | -2.95 | 0.366 µM [falling, full curve] |  |
| CC/C(=N/O)C(=O)c1ccc(Br)cc1 | 10.4 |  |  |
| O=C(O)CCSSCCC(=O)O | -23.5 |  | 0.146 µM [falling, full curve, poor fit] |
| O=[N+]([O-])c1ccc(-c2ccc(/C=N/Nc3nc(N4CCCCC4)nc(N4CCCCC4)n3)o2)cc1 |  | 2.91 µM [falling, partial curve] |  |
| CCCCn1c(=O)c(CCC(=O)OCC(=O)Nc2cccc3ccccc23)nc2ccccc21 | 53.6 | 5.17 µM [rising, partial curve] | 7.31 µM [rising, partial curve] |
| Cn1c(=NC(=O)CS(=O)(=O)c2ccccc2)sc2cc([N+](=O)[O-])ccc21 |  |  | 2.06 µM [rising, single point] |
| O=C(CNC(=O)c1ccc(Br)o1)NCc1cccc(Cl)c1 | -4.32 | 0.58 µM [rising, single point] |  |
| CCN(CC)S(=O)(=O)c1ccc(N2CCOCC2)c(NC(=O)c2cc(C)cc(C)c2)c1 | 13 | 1.64 µM [rising, single point] |  |
| CCOc1ccccc1NC(=O)c1cc(SC)ccc1Cl |  | 3.26 µM [rising, partial curve] | 6.51 µM [rising, single point] |
| CCOC(=O)c1c(NC(=O)C2=C(C)NC(=S)NC2c2ccc(F)cc2)sc(C)c1C (stereo unspecified) | 9.65 | 1.64 µM [rising, full curve, poor fit] |  |
| CC(C)Nc1nc(-c2ccncc2)nc(-c2ccccc2)c1C#N | 17.1 |  | 2.91 µM [rising, partial curve] |
| Cc1cccc(OCC(=O)NNC(=O)c2cc3ccccc3oc2=O)c1 | 40.5 |  | 5.8 µM [rising, partial curve, poor fit] |
| CN(C)CCCN1C(=O)C(=O)/C(=C(/O)c2ccc(OCc3ccccc3)cc2)C1c1cccnc1 (stereo unspecified) | -1.14 |  |  |
| Cc1ccc2c(c1)nnn2C1CCN(CC(=O)Nc2ccc3c(c2)OCCO3)CC1 | 8.64 |  | 1.03 µM [rising, single point] |

One compound at a time, as listed above:
Cn1c(=NC(=O)CS(=O)(=O)c2ccccc2)sc2cc([N+](=O)[O-])ccc21 is listed as AC50 [2]: 2.06 µM [rising, single point]
CCCCn1c(=O)c(CCC(=O)OCC(=O)Nc2cccc3ccccc23)nc2ccccc21 is listed as cell number change [%]: 53.6; AC50 [1]: 5.17 µM [rising, partial curve]; AC50 [2]: 7.31 µM [rising, partial curve]
Cc1cccn2c(=O)nc(SCC(=O)N3CCOCC3)nc12 is listed as cell number change [%]: 13.1; AC50 [1]: 3.26 µM [rising, full curve, poor fit]

Source: PubChem BioAssay AID2685 (National Center for Advancing Translational Sciences (NCATS), 2010)
